In publication PMC9425024:
Results are given in words; binding and its absence hold for the method and conditions named. In cells and extracts the contact can be indirect. Some entries that bind do so weakly or less than the wild type. Sequences can lack the tags named with a protein.

Target: T1, bZIP25-cYFP (UniProt Q9M1G6)
T1 sequence: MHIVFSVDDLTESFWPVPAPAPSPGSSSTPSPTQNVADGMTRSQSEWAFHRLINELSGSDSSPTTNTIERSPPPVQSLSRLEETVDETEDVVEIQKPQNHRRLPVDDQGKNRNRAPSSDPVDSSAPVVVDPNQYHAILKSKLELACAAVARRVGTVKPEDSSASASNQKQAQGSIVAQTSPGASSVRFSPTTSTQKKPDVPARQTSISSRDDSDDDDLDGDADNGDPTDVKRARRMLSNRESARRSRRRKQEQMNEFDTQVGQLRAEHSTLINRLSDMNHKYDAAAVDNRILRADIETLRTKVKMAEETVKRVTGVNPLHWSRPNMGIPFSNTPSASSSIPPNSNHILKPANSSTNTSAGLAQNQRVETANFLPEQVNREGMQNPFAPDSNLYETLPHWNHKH
Assay: split reporter; BiFC with split YFP (pA7-nYFP, pA7-cYFP, CaMV35S promoter), pairs cotransformed into A. thaliana Col-0 protoplasts, fluorescence microscopy; binder written here = nYFP fusion, target = cYFP fusion

binding: binds
B1: bZIP1 (protein, UniProt Q9FGX2 1-145)
chain: MANAEKTSSGSDIDEKKRKRKLSNRESARRSRLKKQKLMEDTIHEISSLERRIKENSERCRAVKQRLDSVETENAGLRSEKIWLSSYVSDLENMIATTSLTLTQSGGGDCVDDQNANAGIAVGDCRRTPWKLSCGSLQPMASFKT
